Article doi:10.1101/2023.12.20.572708
No constants are given. Whether binding was seen depends on the method and setting.

Protein sequences, listed by entry. Tags and fused reporters are not part of them. Lines headed by an entry give the natural chain unless they say otherwise; changes in a name come on top. Residues count along the entry.
UniProt P04146, 1-185, stated change not applied: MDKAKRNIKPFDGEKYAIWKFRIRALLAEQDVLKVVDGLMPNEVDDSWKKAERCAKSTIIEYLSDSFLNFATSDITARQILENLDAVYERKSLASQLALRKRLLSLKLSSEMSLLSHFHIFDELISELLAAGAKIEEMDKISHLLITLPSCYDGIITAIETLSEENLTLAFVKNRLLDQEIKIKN

Biological target: Copia^GagΔNC (Drosophila) (UniProt P04146)
Assay: SEC

In the case of “Copia^GagΔNC (from UniProt P04146 1-185) (domain or fragment)”, the binding is reported as “no binding”.
